Here are results for 1 substance from publication PMC9561711.

Protein sequences, listed by entry. Tags and fused reporters are not part of them.
UniProt P38398: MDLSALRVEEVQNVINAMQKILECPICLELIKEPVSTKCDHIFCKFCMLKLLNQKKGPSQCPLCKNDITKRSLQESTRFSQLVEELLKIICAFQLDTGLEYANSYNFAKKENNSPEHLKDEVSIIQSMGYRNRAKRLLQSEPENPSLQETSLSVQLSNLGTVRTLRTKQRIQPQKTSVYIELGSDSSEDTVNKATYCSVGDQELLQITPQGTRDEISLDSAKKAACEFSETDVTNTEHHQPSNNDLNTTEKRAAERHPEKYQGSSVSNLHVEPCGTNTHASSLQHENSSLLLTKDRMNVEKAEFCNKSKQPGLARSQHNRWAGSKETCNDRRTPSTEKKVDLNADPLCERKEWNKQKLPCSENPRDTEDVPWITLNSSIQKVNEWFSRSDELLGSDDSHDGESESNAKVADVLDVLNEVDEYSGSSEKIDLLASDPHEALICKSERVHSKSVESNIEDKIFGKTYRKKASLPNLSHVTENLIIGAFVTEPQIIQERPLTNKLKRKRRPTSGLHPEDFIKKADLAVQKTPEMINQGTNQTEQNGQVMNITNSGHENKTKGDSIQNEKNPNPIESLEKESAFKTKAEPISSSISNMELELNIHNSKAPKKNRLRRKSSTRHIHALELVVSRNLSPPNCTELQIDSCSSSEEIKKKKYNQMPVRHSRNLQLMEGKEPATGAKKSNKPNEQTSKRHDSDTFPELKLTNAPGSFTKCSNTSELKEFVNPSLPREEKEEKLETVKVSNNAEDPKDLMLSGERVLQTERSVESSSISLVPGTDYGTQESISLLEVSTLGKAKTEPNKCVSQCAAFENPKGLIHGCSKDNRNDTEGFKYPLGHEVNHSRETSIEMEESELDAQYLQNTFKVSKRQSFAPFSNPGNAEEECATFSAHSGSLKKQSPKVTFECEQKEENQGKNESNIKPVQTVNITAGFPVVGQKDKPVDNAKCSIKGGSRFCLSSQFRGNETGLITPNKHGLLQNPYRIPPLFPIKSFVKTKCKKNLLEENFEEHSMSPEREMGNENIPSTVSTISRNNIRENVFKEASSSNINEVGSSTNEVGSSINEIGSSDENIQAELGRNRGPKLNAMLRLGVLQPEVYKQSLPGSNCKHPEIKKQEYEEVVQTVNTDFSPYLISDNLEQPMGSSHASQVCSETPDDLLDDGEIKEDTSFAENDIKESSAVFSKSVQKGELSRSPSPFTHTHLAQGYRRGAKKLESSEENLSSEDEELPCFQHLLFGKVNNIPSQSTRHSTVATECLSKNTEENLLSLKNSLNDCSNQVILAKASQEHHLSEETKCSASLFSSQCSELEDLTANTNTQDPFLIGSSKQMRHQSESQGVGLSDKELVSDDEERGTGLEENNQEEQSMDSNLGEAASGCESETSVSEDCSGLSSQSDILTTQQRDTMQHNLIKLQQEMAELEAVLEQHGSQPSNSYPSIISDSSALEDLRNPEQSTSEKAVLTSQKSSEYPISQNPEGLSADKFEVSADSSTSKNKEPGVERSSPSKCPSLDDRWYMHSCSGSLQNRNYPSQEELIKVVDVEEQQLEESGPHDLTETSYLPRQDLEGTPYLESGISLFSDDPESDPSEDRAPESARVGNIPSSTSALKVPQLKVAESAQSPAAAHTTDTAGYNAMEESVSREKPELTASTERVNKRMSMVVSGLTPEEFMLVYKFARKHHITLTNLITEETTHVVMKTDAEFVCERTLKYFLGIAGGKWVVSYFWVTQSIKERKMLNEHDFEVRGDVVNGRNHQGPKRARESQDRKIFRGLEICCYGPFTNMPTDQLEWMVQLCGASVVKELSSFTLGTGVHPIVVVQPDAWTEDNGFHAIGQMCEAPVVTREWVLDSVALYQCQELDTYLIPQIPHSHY
UniProt Q15648: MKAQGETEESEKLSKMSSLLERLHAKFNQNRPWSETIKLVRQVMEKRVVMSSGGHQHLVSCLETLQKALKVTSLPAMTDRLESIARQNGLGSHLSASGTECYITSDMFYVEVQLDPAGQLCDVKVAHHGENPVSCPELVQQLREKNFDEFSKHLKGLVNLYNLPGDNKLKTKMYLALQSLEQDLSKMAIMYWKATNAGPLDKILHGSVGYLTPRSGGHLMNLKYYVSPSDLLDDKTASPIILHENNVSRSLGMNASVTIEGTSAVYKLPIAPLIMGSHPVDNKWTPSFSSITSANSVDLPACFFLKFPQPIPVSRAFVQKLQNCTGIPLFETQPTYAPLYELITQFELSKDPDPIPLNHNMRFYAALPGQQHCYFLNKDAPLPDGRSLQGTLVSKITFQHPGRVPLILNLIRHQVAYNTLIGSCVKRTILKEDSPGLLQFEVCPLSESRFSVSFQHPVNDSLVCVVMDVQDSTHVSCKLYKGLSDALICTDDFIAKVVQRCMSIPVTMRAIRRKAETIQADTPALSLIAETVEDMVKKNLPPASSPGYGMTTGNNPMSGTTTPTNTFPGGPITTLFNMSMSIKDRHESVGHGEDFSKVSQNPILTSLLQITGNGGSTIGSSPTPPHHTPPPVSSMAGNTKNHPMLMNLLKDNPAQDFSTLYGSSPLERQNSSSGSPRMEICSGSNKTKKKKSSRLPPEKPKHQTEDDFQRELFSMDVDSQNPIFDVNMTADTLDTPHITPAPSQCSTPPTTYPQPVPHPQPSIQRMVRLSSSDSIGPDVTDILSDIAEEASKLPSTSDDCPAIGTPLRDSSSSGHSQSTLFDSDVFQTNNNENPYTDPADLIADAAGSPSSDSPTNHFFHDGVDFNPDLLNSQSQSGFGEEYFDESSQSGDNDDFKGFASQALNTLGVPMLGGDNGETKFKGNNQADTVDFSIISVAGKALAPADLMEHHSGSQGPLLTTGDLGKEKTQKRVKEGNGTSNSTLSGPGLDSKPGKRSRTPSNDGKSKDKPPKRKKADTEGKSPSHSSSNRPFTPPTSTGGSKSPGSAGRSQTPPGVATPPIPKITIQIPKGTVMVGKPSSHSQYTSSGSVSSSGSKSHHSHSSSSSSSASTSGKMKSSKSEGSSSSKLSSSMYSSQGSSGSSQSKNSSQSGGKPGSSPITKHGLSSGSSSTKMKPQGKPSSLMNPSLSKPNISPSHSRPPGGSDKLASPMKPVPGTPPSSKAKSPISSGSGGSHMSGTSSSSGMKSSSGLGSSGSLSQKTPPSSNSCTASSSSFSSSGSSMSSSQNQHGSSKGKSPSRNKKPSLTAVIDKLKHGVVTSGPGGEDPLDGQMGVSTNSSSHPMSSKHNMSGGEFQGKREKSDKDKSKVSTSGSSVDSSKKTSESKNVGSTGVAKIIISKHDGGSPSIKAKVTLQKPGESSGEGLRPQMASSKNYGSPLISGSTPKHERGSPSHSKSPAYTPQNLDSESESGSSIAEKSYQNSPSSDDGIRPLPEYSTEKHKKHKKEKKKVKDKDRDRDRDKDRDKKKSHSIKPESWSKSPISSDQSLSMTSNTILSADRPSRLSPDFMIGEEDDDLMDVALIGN

No constants are given. Whether binding was seen depends on the method and setting. In cells and extracts the contact can be indirect. Some binding calls cover weakened binding; strength is not graded here.

Assay [1] concerns the target BRCA1 (human (endogenous in U2OS)) (UniProt P38398). The assay can be described thus: co-IP; endogenous proteins; U2OS whole-cell extracts in RIPA buffer; IP with anti-BRCA1 or anti-MED1 antibodies or preimmune IgG, protein G Sepharose 4 Fast Flow; immunoblot. (In general: Immunoblotting shows a protein as a band on a membrane.)
Assay [2] shares this target. Nature of the assay: condition: only in the presence of lambda-protein phosphatase, DNase, and RNase; co-IP; same IP of endogenous proteins from U2OS extracts, samples treated with lambda protein phosphatase, DNase I or RNase.

With “Mediator complex subunit 1 (MED1) (from UniProt Q15648 1-1581)”, the binding result is reported as “binds” in assay [1] and “no binding” in assay [2].
